Test results: publication PMC4799364
No constants are given. Whether binding was seen depends on the method and setting. In cells and extracts the contact can be indirect. Some entries that bind do so weakly or less than the wild type.

Chains of the proteins cited; added tags and fusions are not shown.
UniProt Q811P8: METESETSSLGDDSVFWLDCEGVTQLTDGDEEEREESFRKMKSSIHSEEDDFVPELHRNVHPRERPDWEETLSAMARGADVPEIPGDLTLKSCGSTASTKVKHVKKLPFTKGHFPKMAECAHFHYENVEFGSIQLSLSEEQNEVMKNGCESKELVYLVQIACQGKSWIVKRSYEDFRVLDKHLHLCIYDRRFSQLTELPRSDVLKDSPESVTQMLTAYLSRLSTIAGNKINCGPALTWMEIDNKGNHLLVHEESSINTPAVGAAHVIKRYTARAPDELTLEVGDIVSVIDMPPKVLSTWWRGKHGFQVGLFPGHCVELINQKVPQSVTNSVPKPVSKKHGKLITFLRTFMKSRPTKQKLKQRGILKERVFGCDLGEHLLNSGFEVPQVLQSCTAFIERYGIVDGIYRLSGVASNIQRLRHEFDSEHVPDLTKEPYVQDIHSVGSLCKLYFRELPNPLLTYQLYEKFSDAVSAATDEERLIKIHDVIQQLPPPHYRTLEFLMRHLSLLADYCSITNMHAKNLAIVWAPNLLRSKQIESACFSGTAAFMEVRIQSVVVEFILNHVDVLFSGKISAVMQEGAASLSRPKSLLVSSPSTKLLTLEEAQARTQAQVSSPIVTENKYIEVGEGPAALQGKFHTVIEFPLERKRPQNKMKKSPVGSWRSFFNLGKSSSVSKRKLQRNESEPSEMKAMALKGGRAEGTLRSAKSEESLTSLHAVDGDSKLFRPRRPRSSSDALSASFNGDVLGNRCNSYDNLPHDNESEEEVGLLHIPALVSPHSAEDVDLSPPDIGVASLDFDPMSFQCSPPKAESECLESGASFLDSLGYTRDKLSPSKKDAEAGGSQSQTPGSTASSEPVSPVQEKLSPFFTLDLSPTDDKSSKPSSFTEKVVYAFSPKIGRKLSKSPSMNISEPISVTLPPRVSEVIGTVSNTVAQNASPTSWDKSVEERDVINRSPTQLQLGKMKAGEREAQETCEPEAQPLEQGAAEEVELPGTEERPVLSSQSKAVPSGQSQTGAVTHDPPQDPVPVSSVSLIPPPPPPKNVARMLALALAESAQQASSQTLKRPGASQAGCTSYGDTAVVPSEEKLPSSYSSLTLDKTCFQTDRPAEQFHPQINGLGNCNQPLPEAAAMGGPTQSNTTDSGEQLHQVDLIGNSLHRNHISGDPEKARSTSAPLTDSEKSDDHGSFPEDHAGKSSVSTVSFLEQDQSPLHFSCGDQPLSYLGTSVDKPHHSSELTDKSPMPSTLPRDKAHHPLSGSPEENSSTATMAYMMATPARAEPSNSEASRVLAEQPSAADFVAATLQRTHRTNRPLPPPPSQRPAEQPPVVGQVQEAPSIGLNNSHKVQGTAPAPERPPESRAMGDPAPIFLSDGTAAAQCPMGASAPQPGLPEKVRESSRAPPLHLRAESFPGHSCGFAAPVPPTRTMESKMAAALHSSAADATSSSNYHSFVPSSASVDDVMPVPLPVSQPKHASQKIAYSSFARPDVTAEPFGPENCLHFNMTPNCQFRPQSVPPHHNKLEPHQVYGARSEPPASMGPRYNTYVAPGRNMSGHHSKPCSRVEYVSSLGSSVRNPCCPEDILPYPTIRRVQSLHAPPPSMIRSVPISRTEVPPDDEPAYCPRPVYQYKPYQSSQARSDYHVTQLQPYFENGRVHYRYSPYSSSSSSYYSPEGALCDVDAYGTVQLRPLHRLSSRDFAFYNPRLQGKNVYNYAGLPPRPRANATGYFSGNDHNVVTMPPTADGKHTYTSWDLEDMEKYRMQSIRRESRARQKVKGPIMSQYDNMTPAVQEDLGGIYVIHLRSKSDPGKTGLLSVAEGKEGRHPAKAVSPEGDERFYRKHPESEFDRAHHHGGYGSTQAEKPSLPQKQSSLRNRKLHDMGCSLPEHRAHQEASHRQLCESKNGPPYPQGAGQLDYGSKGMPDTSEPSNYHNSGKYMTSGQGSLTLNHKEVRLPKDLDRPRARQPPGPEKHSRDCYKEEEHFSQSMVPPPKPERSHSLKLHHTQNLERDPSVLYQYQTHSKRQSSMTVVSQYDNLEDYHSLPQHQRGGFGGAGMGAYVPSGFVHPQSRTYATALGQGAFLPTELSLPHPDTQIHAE
UniProt P63101: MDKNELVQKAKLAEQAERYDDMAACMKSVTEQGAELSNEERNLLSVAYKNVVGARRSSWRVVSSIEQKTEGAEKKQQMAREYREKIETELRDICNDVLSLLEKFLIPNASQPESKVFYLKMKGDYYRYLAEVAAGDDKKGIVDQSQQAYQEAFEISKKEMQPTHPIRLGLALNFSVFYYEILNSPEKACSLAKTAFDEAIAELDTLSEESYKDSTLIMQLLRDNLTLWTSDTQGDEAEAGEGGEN
UniProt Q9DCD6: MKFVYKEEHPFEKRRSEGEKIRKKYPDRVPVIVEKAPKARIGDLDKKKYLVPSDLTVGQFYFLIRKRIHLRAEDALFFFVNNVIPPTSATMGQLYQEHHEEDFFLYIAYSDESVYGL
UniProt O08788: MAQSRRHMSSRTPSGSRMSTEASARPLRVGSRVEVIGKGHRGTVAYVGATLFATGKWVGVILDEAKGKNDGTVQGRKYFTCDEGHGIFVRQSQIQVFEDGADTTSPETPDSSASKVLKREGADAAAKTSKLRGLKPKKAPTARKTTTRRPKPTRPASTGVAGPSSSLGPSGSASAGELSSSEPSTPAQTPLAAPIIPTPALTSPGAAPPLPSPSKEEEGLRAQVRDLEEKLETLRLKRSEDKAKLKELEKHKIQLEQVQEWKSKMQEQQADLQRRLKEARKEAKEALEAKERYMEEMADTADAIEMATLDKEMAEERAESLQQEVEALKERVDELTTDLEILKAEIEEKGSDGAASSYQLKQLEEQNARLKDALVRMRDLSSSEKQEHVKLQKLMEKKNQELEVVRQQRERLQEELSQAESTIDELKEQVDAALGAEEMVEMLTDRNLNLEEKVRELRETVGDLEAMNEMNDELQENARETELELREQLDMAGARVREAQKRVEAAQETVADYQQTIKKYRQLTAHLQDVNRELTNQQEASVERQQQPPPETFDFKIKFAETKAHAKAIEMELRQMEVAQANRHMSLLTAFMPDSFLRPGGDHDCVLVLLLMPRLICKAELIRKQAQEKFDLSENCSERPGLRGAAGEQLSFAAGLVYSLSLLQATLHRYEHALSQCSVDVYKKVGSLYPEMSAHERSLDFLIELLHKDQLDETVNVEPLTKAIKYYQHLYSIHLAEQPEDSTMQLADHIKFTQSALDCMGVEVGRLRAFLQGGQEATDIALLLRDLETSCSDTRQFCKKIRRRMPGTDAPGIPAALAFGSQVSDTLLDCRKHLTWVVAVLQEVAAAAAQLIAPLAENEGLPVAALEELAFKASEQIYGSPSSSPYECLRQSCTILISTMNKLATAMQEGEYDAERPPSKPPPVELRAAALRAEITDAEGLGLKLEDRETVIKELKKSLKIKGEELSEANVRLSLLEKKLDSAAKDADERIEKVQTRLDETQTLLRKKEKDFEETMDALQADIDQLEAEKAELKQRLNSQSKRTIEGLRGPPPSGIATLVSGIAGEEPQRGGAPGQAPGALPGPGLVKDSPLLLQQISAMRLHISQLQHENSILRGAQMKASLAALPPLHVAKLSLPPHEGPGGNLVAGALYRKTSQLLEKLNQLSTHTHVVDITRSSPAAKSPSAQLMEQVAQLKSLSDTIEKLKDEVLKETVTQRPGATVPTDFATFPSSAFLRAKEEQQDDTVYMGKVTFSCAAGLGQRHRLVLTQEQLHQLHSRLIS

T1: γ2 subunit of the γ-aminobutyric acid type A receptor (GABAAR) (mouse (endogenous in mouse cortical neurons)) (UniProt P22723)
T1 sequence: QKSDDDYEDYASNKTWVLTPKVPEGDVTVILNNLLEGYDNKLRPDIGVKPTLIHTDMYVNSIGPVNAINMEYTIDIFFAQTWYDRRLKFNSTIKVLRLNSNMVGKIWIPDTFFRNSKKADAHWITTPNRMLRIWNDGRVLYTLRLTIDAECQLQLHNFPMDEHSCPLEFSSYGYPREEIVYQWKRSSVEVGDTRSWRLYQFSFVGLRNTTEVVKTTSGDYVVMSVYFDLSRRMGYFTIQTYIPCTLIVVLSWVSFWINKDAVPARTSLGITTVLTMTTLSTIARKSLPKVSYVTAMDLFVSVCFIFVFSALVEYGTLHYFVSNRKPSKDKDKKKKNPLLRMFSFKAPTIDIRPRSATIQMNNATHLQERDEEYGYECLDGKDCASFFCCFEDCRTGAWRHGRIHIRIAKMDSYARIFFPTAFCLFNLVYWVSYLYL

B1: 14-3-3θ (protein, UniProt P68254 1-245)
chain: MEKTELIQKAKLAEQAERYDDMATCMKAVTEQGAELSNEERNLLSVAYKNVVGGRRSAWRVISSIEQKTDTSDKKLQLIKDYREKVESELRSICTTVLELLDKYLIANATNPESKVFYLKMKGDYFRYLAEVACGDDRKQTIENSQGAYQEAFDISKKEMQPTHPIRLGLALNFSVFYYEILNNPELACTLAKTAFDEAIAELDTLNEDSYKDSTLIMQLLRDNLTLWTSDSAGEECDAAEGAEN

Assays:
[1] = target: PX-RICS (ARHGAP32 isoform 1) (mouse (endogenous in mouse cortical neurons)) (UniProt Q811P8); assay: co-IP; mouse cortical neurons solubilized with 1% digitonin, linear sucrose density gradient (10-40%) ultracentrifugation; fractions 6, 7 and 8 (>440 kDa) pooled and immunoprecipitated with anti-PX-RICS antibody; immunoblotting
[2] = target: PX-RICS (ARHGAP32 isoform 1) (mouse (endogenous in mouse cortical neurons)) (UniProt Q811P8); assay: co-IP; mouse cortical neurons (14 DIV) lysed in lysis buffer T (10 mM Tris-HCl pH 6.8, 140 mM NaCl, 1 mM EDTA, 1% Triton X-100); precleared lysate with 5 ug of the indicated antibody 1 h at 4 °C, protein A-Sepharose; immunoblotting
[3] = target: T1, γ2 subunit of the γ-aminobutyric acid type A receptor (GABAAR) (mouse (endogenous in mouse cortical neurons)); assay: as above

| Molecule | binding [1] | binding [2] | binding [3] |
| --- | --- | --- | --- |
| 14-3-3ζ (from UniProt P63101 1-245) | binds | – | – |
| GABA type A receptor (GABAAR)-associated protein (GABARAP) (from UniProt Q9DCD6 1-117) | binds | binds | binds |
| dynactin1 (from UniProt O08788 1-1281) | binds | – | – |
| B1 | binds | – | – |
